# No constants are given. Whether binding was seen depends on the method and setting. In cells and extracts the contact can be indirect. Here binding means that the protein was enriched with, or labelled near, the bait; the list need not be complete.
# Protein sequences, listed by entry. Tags and fused reporters are not part of them. Lines headed by an entry give the natural chain unless they say otherwise; changes in a name come on top.
# UniProt Q13404: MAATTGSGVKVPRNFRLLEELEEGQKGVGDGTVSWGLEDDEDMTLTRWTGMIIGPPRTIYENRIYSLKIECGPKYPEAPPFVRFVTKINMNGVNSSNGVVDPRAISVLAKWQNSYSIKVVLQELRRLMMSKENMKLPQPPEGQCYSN
# UniProt P40337: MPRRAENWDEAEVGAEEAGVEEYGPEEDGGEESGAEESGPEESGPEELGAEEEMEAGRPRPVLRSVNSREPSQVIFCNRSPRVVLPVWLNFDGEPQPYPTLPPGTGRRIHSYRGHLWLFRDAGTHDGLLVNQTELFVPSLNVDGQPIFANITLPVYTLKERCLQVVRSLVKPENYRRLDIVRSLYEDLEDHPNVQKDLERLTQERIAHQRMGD
# Target: Flag-UBE2V1 (ubiquitin conjugating enzyme E2 variant 1) (UniProt Q13404)
# Experiment: affinity purification with mass spectrometry; IP of Flag-UBE2V1; gel bands digested with trypsin, LC-MS/MS on a timsTOF Pro; cells not named
substance,measurement,value
"von Hippel-Lindau (VHL) protein, endogenous (from UniProt P40337 1-213)",binding,binds

# Source: article PMC12722638
